The nature of data set [1]: general procedure: hybrid (solid and solution phase) peptide synthesis; Fmoc-Phe-OH Wang Resin (loading 0.5 mmol/g); Fmoc-DMT-OH Wang Resin (loading 0.5 mmol/g); EDC.HCl/HOBt.
Data set [2] relates to CL:DOPC 1:3 liposomes (cardiolipin). The data set is described as follows: Isothermal titration calorimetry (ITC) of test compound into CL:DOPC liposomes. The data set is classed as binding. As to conditions: 20 mM HEPES pH 7.4. As to the method: Example 18: Isothermal Titration Calorimetry (ITC) Study
1. Preparation of CL:DOPC 1:3 Liposomes (CL Concentration 0.1 mM)
146 μl of cardiolipin solution (5.1 mg/mL in EtOH, Sigma-Aldrich, C1649-10MG) were mixed with 1.2 mg 0.05 mg (exact weight, see Table 1) of DOPC (Avanti Polar Lipids, 850375P) and 20 mM HEPES buffer pH=7.4. Resulting solution was diluted up to 5 mL with the same buffer, vortexed for 2 min and sonicated in bath sonicator for 30 min at room temperature. Liposomes were produced by manual extrusion (Avestin, The LiposoFast-Stabilizer with a LiposoFast-Basic) through a 100 nm filter (Avestin, PC membranes 0.1 m or Avanti Polar Lipids, PC membranes 0.1 μm, 610005). Extrusion was performed for 21 times. EtOH concentration in sample is 2.9%. Obtained CL:DOPC solutions were tested for homogeneity by DLS (Malvern Instruments Ltd, Zetasizer Nano ZSP, instrument with Malvern Instruments Ltd software 7.11) using the following parameters—medium: water; refractive index: 1.33; viscosity: 0.8872 cP; temperature: 25° C.; nanoparticles: liposomes; refractive index of materials: 1.60; detection angle of 173°, a wavelength of 633 nm. All measurements were performed in triplicate.
2. Preparation of Test Compound Solutions
2 mg or 14 mg (exact weight, see Table 1) of test compound were dissolved in 20 mM HEPES buffer (pH=7.4, contains 2,9% (V/V) of EtOH) to obtain 0.7 mM concentration (for exact volumes see Table 3). Obtained solution was vortexed for 2 min.
3. ITC Titration Experiments
Instrument cell was washed and purged with ≈100 μL of CL:DOPC liposomes solution. After washing cell was filled with CL:DOPC liposomes solution. Injection syringe was loaded with test compound solution. Injection volumes were set to values shown in Table 2 and DP values were set to 2.5 μcal/sec in all experiments. Time between injections—105 seconds. Titration of each compound is performed in triplicate, results are reported as mean value±standard deviation (see Table 4).

Setting [3] is: late stage modification step, 210 nm, hydrochloride or trifluoroacetate.
[4] abbreviates: late stage modification step, hydrochloride or trifluoroacetate.
[5] abbreviates: coupling step, HPLC, hydrochloride or trifluoroacetate.
Setting [6] is: late stage modification step, 256 nm, hydrochloride or trifluoroacetate.
The mark [7] stands for this setting: coupling step, hydrochloride or trifluoroacetate.
[8] abbreviates: late stage modification step, HPLC, hydrochloride or trifluoroacetate.

Where “and” joins values, the source holds several entries; their conditions need not be identical. Equal values may be shown once. Square brackets hold non-standard residues; d marks the D form. Peptide text beside a SMILES is read from it. Some results are limits rather than exact numbers.

The results in this text go back to patent publication US20200361987A1 (STEALTH BIOTHERAPEUTICS CORP., priority 2017, published 2020).

For D-Arg-DMT-(4,4,5,5-d4)-Lys-Phe-NH2, the “crude HPLC purity” value in data set [1] (setting [3]) is 96.1%. This molecule registered a step yield in data set [1] (setting [4]) of 99%.

Turning to “D-Arg-DMT-Lys-(α,β,β,2,3,4,5,6-d8)-Phe-NH2”, the step yield in data set [1] (setting [4]) is listed as 34%.

As to “(N-Boc-α,β,β,2,3,4,5,6-d8)-Phe-D-Arg-Phe-(N6-Cbz)-Lys-NH2”, the “final purity (method not given)” value in data set [1] (setting [5]) was “purity—80%”.

“Phe-D-Arg-(α,β,β,2,3,4,5,6-d8)-Phe-Lys-NH2” came in with a step yield in data set [1] (setting [4]) of 61%.

For the molecule D-Arg-DMT-(2,6,6-d3)-Lys-Phe-NH2, the “crude HPLC purity” value in data set [1] (setting [3]) amounted to 96.07%; in data set [1] (setting [6]), 94.19%. Moreover, the step yield in data set [1] (setting [4]) stood at 99%.

With “D-(Boc)-Arg-DMT-(N6-Cbz)-Lys-(α,β,β,2,3,4,5,6-d8)-Phe-NH2”, the step yield in data set [1] (setting [7]) is recorded as 30%.

“(Boc)-Phe-D-Arg-(α-d)-Phe-(N6-Cbz)-Lys-NH2”: the “final purity (method not given)” value in data set [1] (setting [5]) came to 90%.

With Phe-D-Arg-Phe-(2-d)-Lys-NH2, the “final HPLC purity” value in data set [1] (late stage modification step, HPLC, trifluoroacetate) is on record as more than 96%.

“(Cbz)-D-Arg-DMT-(N6-Boc-3,3,4,4,5,5,6,6-d8)-Lys-Phe-NH2” had a step yield in data set [1] (setting [7]) of 80%.

“(Cbz)-D-Arg-DMT-(N6-Boc-2,6,6-d3)-Lys-Phe-NH2” came in with a step yield in data set [1] (setting [7]) of 69%.

In the case of (Cbz)-D-Arg-DMT-(2,6,6-d3)-Lys-Phe-NH2, the “final HPLC purity” value in data set [1] (setting [3]) is given as 97.1%. The step yield in data set [1] (setting [4]) is reported as 73%.

As for “(α,β,β,2,3,4,5,6-d8)-Phe-D-Arg-Phe-(N6-Cbz)-Lys-NH2”, the “crude purity (method not given)” value in data set [1] (setting [8]) is “purity—80%”.

“(Boc)-Phe-D-Arg-(α,β,β,2,3,4,5,6-d8)-Phe-Lys-NH2” came in with a step yield in data set [1] (setting [4]) of 94%.

Take Phe-D-Arg-(2,3,4,5,6-d5)-Phe-Lys-NH2: the step yield in data set [1] (setting [4]) is listed as 61%.

Regarding `N=C(N)NCCC[C@@H](NC(=O)[C@@H](N)Cc1ccccc1)C(=O)N[C@@H](Cc1ccccc1)C(=O)N[C@@H](CCCCN)C(N)=O` [Example 1 non-deuterated, Phe-D-Arg-Phe-Lys-NH2, reference compound] (H-F[dR]FK-NH2), in data set [2] (Average of replicates), the “-TΔS” value is listed as -0.59 kcal/mol, the ΔG is -7.20 kcal/mol, the ΔH is -6.611 kcal/mol and the ΔS is 0.00198 kcal/mol. In data set [2] (single replicate titration), the “-TΔS” value was -0.65 kcal/mol and -0.36 kcal/mol and -0.76 kcal/mol; the ΔG was -7.31 kcal/mol and -7.02 kcal/mol and -7.27 kcal/mol; the ΔH was -6.66 kcal/mol and -6.666 kcal/mol and -6.508 kcal/mol; the ΔS is 0.00219 kcal/mol and 0.0012 kcal/mol and 0.00254 kcal/mol.

Turning to “(Boc)-D-Arg-DMT-(N6-Cbz)-Lys-(α-d)-Phe-NH2”, the “final purity (method not given)” value in data set [1] (setting [5]) was “purity—70%”.

In data set [1] (setting [7]), “(Boc)-Phe-D-Arg-(2,3,4,5,6-d5)-Phe-(N6-Cbz)-Lys-NH2” gave a step yield of 30%.

Turning to “(Boc)-Phe-D-Arg-Phe-(N6-Boc-2,5,5-d3)-Lys-NH2”, in data set [1] (setting [5]), the “final purity (method not given)” value came to 70%.

Regarding `[2H]C([2H])(N)C([2H])([2H])C([2H])([2H])C([2H])([2H])[C@H](NC(=O)[C@H](Cc1ccccc1)NC(=O)[C@@H](CCCNC(=N)N)NC(=O)[C@@H](N)Cc1ccccc1)C(N)=O` [Example 1, Phe-D-Arg-Phe-(3,3,4,4,5,5,6,6-octadeuterium)-Lys-NH2], in data set [2] (Average of replicates), the “-TΔS” value worked out at 0.95 kcal/mol, the ΔG was -7.62 kcal/mol, the ΔH was -8.573 kcal/mol and the ΔS is -0.0032 kcal/mol. Moreover, in data set [2] (single replicate titration), the “-TΔS” value is 1.08 kcal/mol and 0.69 kcal/mol and 0.99 kcal/mol and 1.04 kcal/mol; the ΔG is -7.74 kcal/mol and -7.63 kcal/mol and -7.59 kcal/mol and -7.54 kcal/mol; the ΔH was -8.821 kcal/mol; the ΔS is -0.00363 kcal/mol and -0.00232 kcal/mol and -0.00331 kcal/mol and -0.00349 kcal/mol.

Take “(Cbz)-D-Arg-DMT-(4,4,5,5-d4)-Lys-Phe-NH2”: the “final HPLC purity” value in data set [1] (setting [3]) was 97.3%. Also, the step yield in data set [1] (setting [4]) is 66%.

For the molecule “(Cbz)-D-Arg-DMT-(3,3,4,4,5,5,6,6-d8)-Lys-Phe-NH2”, the “final HPLC purity” value in data set [1] (setting [3]) is reported as 97.34%. This molecule also gave a step yield in data set [1] (setting [4]) of 79%.

In the case of “D-Arg-DMT-(3,3,4,4,5,5,6,6-d8)-Lys-Phe-NH2”, the “crude HPLC purity” value was 81.59% in data set [1] (setting [3]) and 92.01% in data set [1] (setting [6]). For the same molecule, the “final HPLC purity” value turned out to be 98.95% in data set [1] (setting [3]) and 99.70% in data set [1] (setting [6]).

In data set [1] (setting [7]), “(Boc)-Phe-D-Arg-(α,β,β,2,3,4,5,6-d8)-Phe-(N6-Cbz)-Lys-NH2” gave a step yield of 23%.

In data set [1] (setting [4]), “D-(Boc)-Arg-DMT-Lys-(α,β,β, 2,3,4,5,6-d8)-Phe-NH2” showed a step yield of 89%.

Turning to (Boc)-D-Arg-DMT-Lys-(α-d)-Phe-NH2, the “crude purity (method not given)” value in data set [1] (setting [8]) is on record as “purity—70%”.

In data set [1] (setting [4]), “(Boc)-Phe-D-Arg-(2,3,4,5,6-d5)-Phe-Lys-NH2” yielded a step yield of 85%.

Molecule “(Cbz)-D-Arg-DMT-(N6-Boc-4,4,5,5-d4)-Lys-Phe-NH2” returned a step yield in data set [1] (setting [7]) of 76%.
